# These are yes or no findings as the source states them, for the method shown. Binding calls can cover weak binding; strength is not graded here. Tags and fused reporters may be left off the sequences shown.
# Chains of the proteins cited; added tags and fusions are not shown. Lines headed by an entry give the natural chain unless they say otherwise; changes in a name come on top.
# UniProt Q9ZV52: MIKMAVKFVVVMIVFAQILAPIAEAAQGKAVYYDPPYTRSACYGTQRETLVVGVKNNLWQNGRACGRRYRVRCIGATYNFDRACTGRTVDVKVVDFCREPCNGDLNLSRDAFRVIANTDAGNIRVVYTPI
# T1: recombinant catalase 2 (CAT2), N-terminally 6xHis-tagged (Arabidopsis thaliana) (UniProt P25819)
# T1 sequence: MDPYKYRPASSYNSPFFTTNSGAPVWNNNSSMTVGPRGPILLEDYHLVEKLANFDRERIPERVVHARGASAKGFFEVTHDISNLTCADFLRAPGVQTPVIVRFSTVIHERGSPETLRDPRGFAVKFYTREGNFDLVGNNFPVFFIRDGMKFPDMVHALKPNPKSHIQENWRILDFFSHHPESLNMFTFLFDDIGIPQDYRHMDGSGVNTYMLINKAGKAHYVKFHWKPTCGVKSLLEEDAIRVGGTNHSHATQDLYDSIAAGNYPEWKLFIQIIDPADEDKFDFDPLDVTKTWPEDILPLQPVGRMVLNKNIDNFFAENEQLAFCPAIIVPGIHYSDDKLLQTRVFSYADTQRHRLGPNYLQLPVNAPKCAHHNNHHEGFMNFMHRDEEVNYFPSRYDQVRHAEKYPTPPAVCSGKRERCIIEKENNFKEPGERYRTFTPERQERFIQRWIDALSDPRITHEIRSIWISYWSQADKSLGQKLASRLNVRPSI
# T2: recombinant catalase 2 (rCAT2), N-terminally 6xHis-tagged (A. thaliana) (UniProt P25819)
# T2 sequence: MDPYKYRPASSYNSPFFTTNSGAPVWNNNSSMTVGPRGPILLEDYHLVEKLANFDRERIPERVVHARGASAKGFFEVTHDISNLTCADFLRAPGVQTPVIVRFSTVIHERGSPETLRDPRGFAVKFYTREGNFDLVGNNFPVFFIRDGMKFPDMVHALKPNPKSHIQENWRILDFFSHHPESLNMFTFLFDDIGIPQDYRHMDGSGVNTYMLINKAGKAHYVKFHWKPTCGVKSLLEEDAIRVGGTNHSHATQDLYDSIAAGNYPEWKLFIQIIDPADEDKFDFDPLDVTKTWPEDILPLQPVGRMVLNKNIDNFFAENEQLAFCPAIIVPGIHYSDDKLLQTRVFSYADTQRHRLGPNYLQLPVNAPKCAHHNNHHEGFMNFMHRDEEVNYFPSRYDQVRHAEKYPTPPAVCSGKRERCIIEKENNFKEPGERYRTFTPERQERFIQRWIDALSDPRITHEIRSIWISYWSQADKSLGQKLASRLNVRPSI
# B1: recombinant catalase 2 (CAT2), N-terminally 6xHis-tagged (enzyme, UniProt P25819 1-492)
# chain: MDPYKYRPASSYNSPFFTTNSGAPVWNNNSSMTVGPRGPILLEDYHLVEKLANFDRERIPERVVHARGASAKGFFEVTHDISNLTCADFLRAPGVQTPVIVRFSTVIHERGSPETLRDPRGFAVKFYTREGNFDLVGNNFPVFFIRDGMKFPDMVHALKPNPKSHIQENWRILDFFSHHPESLNMFTFLFDDIGIPQDYRHMDGSGVNTYMLINKAGKAHYVKFHWKPTCGVKSLLEEDAIRVGGTNHSHATQDLYDSIAAGNYPEWKLFIQIIDPADEDKFDFDPLDVTKTWPEDILPLQPVGRMVLNKNIDNFFAENEQLAFCPAIIVPGIHYSDDKLLQTRVFSYADTQRHRLGPNYLQLPVNAPKCAHHNNHHEGFMNFMHRDEEVNYFPSRYDQVRHAEKYPTPPAVCSGKRERCIIEKENNFKEPGERYRTFTPERQERFIQRWIDALSDPRITHEIRSIWISYWSQADKSLGQKLASRLNVRPSI
# Tests used:
# [1] = target: T1, recombinant catalase 2 (CAT2), N-terminally 6xHis-tagged (Arabidopsis thaliana); experiment: SPR; purified rCAT2 immobilised by amine coupling on a CM5 chip, reference surface blank activated; purified rAtPNP-A as analyte; 20 °C; both purified
# [2] = target: T2, recombinant catalase 2 (rCAT2), N-terminally 6xHis-tagged (A. thaliana); experiment: SPR; Biacore T100, 20 °C, Series S CM5 or NTA sensor chips; rAtPNP-A and rCAT2 in both ligand-analyte configurations; both purified
# [3] = target: recombinant AtPNP-A protein, N-terminally 6xHis-tagged (Arabidopsis thaliana) (UniProt Q9ZV52); experiment: SPR; inverted configuration: purified rAtPNP-A immobilised by amine coupling on a CM5 chip; purified rCAT2 as analyte; 20 °C; both purified
molecule,measurement,setting,value
"recombinant AtPNP-A protein, N-terminally 6xHis-tagged (from UniProt Q9ZV52)",binding,[1],binds
"recombinant AtPNP-A (rAtPNP-A), N-terminally 6xHis-tagged (from UniProt Q9ZV52)",binding,[2],binds
B1,binding,[3],binds

# — PMC7665192, “A natriuretic peptide from Arabidopsis thaliana (AtPNP-A) can modulate catalase 2 activity” (Scientific Reports, 2020)
